Measurements reported in PubChem BioAssay AID1259308 (NCATS, 2017).
This is a random part of about 59,000 reagents. Over the whole deposit, about 1,510 (2.6%) are marked active. 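Calls use total luciferase alone and ignore viability, so some active siRNAs may act by altering cell number.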 The numbers tell different reagents against one gene apart.

Screen: 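Genes whose loss raises luciferase production in HEK293 cells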 (primary screen)
System: human HEK293 embryonic kidney cells stably expressing firefly luciferase (HEK-CMV-Luc2-Hygro)
Reagents: single siRNA against human genes, 0.8 pmol siRNA per well
Duration: 72 h
Measured: 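Luciferase light (ONE-Glo) measured on one replicate plate set and viability (CellTiter-Glo) on the other, scaled to a negative control siRNA, with robust z-scores and luciferase per cell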
Scale: total luciferase, z-score and total luciferase, % of control: higher = more reporter protein produced; luciferase per cell, z-score: higher = more reporter output per viable cell; viable cells, % of control: higher = more viable cells
Active means: 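Active when the median/MAD z-score for overall luciferase is greater than 3; a gene was taken forward for validation with new siRNAs if at least two of its three siRNAs passed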
Calls: active = raised luciferase; inactive = no rise

no.	Gene	reagent	total luciferase, z-score	total luciferase, % of control	luciferase per cell, z-score	viable cells, % of control	call
1	MRGPRX4	1	0.784	97.5	0.202	103	inactive
2	MRGPRX4	2	-1.27	56.5	-1.57	95.5	inactive
3	MRGPRX4	3	0.7	95.8	0.22	101	inactive
4	UBE2B	1	0.587	93.6	0.989	80.6	inactive
5	UBE2B	2	-1.46	52.8	-0.195	62.1	inactive
6	UBE2B	3	-0.897	64.1	-1.83	116	inactive
7	CNNM4	1	-0.349	74.9	-0.975	108	inactive
8	CNNM4	2	-0.517	71.6	-1.05	106	inactive
9	CNNM4	3	0.934	100	0.714	93	inactive
10	TMEM70	1	0.77	97.2	0.115	105	inactive
11	TMEM70	2	1.2	106	1.85	72.7	inactive
12	TMEM70	3	1.8	118	2.76	63.6	inactive
13	CCDC40	1	-0.265	76.6	0.316	78.8	inactive
14	CCDC40	2	1.67	115	1.11	96	inactive
15	CCDC40	3	-0.789	66.2	-0.705	89.1	inactive
16	STOML3	1	-0.359	74.8	-0.0134	83.8	inactive
17	STOML3	2	2.64	134	2.23	83.5	inactive
18	STOML3	3	-0.823	65.5	-0.628	86.4	inactive
19	PGAP1	1	-2.1	40	-1.63	68.7	inactive
20	PGAP1	2	-0.77	66.6	-0.768	91.1	inactive
21	PGAP1	3	1.21	106	1.55	78.7	inactive
22	CDC20	1	0.451	90.9	0.679	84.9	inactive
23	CDC20	2	-2.74	27.3	-2.47	58.6	inactive
24	CDC20	3	0.159	85	0.203	90.1	inactive

Records listed so far whose gene name starts with T or t:
Gene	reagent	total luciferase, z-score	total luciferase, % of control	luciferase per cell, z-score	viable cells, % of control	call
TMEM70	1	0.77	97.2	0.115	105	inactive
TMEM70	2	1.2	106	1.85	72.7	inactive
TMEM70	3	1.8	118	2.76	63.6	inactive
